These are yes or no findings as the source states them, for the method shown. For part of these data: Binding seen in cells or lysates may run through a third protein. Some results given as binding are weak or reduced against the parent protein; the word gives no strength. For part of these data: Sequences can lack the tags named with a protein.
How the values were obtained:
[1] = target: T1, PLZF protein derivative consisting only of a region of Zn1 to Zn9 (UniProt Q05516); assay: GST pull-down on Glutathione Sepharose beads, cell lysate, anti-FLAG immunoblot
T1 sequence (looked up): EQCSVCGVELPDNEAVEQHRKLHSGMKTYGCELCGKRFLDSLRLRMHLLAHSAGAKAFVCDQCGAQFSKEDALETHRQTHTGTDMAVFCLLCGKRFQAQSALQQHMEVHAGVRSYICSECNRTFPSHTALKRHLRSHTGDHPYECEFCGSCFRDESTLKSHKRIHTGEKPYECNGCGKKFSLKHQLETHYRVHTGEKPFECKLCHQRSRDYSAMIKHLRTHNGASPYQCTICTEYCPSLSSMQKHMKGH

Protein sequences, listed by entry. Tags and fused reporters are not part of them. Residues count along the entry.
UniProt Q99075, residues 149-208: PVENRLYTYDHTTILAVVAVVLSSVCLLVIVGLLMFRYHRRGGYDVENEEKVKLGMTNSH

[2] = target: T2, FLAG-tagged wild-type PLZF protein (UniProt Q05516); assay: as above
T2 sequence (looked up): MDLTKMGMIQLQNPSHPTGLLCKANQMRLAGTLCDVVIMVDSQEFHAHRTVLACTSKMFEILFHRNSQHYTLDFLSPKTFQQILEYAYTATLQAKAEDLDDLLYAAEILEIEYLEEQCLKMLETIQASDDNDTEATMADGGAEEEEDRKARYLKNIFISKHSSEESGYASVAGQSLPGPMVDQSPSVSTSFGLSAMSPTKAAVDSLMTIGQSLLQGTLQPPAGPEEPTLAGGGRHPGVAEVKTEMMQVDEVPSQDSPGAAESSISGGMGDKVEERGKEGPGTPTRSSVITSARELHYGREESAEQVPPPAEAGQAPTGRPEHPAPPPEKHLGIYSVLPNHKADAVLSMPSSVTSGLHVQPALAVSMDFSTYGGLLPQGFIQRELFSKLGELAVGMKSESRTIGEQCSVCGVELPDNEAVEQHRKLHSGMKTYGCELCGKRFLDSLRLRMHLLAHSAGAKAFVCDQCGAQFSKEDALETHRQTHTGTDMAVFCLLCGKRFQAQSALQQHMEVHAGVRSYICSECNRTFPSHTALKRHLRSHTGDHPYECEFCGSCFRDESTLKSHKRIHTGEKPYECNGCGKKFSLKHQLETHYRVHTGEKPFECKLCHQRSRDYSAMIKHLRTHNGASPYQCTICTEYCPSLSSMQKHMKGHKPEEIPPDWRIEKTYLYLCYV

[3] = target: T3, PLZF protein derivative consisting only of a region of Zn5 to Zn8 (UniProt Q05516); assay: as above
T3 sequence (looked up): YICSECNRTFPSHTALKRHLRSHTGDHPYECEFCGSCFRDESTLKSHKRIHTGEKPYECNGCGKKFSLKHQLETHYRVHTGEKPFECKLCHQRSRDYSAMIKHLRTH

[4] = target: T4, PLZF protein derivative consisting only of a region of Zn1 to Zn6 (UniProt Q05516); assay: as above
T4 sequence (looked up): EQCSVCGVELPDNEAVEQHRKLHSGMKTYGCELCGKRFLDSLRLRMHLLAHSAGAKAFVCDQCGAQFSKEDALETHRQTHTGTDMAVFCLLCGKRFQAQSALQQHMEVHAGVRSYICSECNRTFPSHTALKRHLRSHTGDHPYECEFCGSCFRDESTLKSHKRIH

[5] = target: T5, PLZF protein derivative consisting only of a region of Zn4 to Zn9 (UniProt Q05516); assay: as above
T5 sequence (looked up): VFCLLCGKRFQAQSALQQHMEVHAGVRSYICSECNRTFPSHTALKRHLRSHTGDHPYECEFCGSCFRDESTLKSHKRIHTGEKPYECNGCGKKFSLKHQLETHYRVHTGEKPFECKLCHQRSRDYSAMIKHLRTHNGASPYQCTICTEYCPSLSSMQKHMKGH

tagged PLZF protein = target: T6, tagged PLZF protein (UniProt Q05516); assay: cells transfected with tagged PLZF, after processing of HB-EGF; method not described
T6 sequence (looked up): T2 sequence (looked up)

Measured: binding

GST binding HB-EGF remaining fragment (from UniProt P08515 1-218; Q99075 185-208)
binds: [1] | [2] | [3] | [4] | [5]

remaining fragment of HB-EGF produced in cells by processing (from UniProt Q99075 149-208)
binds: tagged PLZF protein

— patent US7498127
